Results are given in words; binding and its absence hold for the method and conditions named. Binding seen in cells or lysates may run through a third protein. Some binding calls cover weakened binding; strength is not graded here.
Experiments:
[1] = target: methionine adenosyltransferase alpha 1 (MATα1), mouse (mouse (endogenous in mouse liver)) (UniProt Q91X83); experiment: co-IP; 700 ug of whole liver or cell extract, pre-cleaned with normal Ig and protein A+G-agarose; IP with 3 ug anti-MATα1 antibody overnight at 4°C; washed five times with IP buffer (150 mM NaCl, 0.5% deoxycholate, 0.1% SDS, 1% NP-40, 50 mM Tris-HCl pH 7.5); western blot; normal Ig as control
[2] = target: methionine adenosyltransferase alpha 1 (MATα1), mouse (mouse (endogenous in mouse liver)) (UniProt Q91X83); experiment: co-IP; 350 ug of liver mitochondrial fraction, pre-cleaned with normal Ig and protein A+G-agarose; IP with 3 ug anti-MATα1 or anti-MCJ antibody overnight at 4°C; washed five times with IP buffer (150 mM NaCl, 0.5% deoxycholate, 0.1% SDS, 1% NP-40, 50 mM Tris-HCl pH 7.5); western blot; normal Ig as control

By UniProt entry, the sequences of proteins in these tests, tags left out.
UniProt Q91X83: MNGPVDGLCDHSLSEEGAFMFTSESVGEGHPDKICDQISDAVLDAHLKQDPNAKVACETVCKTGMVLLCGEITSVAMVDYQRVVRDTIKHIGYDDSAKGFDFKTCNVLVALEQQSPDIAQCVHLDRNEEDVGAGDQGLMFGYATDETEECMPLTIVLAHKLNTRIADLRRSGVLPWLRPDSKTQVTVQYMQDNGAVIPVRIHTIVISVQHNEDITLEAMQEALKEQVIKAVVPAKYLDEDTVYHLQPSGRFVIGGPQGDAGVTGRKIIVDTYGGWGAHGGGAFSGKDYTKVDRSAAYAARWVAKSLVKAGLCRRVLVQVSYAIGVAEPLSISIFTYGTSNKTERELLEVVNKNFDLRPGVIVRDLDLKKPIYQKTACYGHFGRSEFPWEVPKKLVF
UniProt Q78YY6: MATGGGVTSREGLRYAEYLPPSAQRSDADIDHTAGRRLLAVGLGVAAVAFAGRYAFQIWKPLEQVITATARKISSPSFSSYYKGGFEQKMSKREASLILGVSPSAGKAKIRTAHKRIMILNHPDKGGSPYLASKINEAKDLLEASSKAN

**Q.** For “MCJ (Methylation-Controlled J protein), mouse (from UniProt Q78YY6 1-149)”, which binding [1] is on record?
**A.** binds

**Q.** And the binding [2]?
**A.** binds

— publication PMC10878152
